According to PubChem BioAssay AID256 (DTP/NCI, 2004):
The list does not hold the whole screen: it is rich in T/C values a quarter to a half above the control, in often repeated tests (any T/C) and in doses without a T/C. Further doses and runs are listed elsewhere. T/C: endpoint of the treated group in % of that of the vehicle group. Some doses have a count of surviving animals in place of a T/C: the source files T/C as zero there, which appears to mark a toxic dose or a test without result, not a measured value. Some survivor counts are full or nearly so, which does not show that the dose was tolerated: survival well below the control is almost never listed, so the zero probably covers shortened survival too. Counts of survivors are from the toxicity check (mostly the fifth day) where no day follows; animals may have died later. Schedules are NCI's codes, taken here to give the interval after Q, in days (D) or hours (H), and the number of doses after X. Where survival is the endpoint, this PubChem deposit counts one and a half times the control or more as active, and values a quarter to a half above the control carry no call in these data; other NCI protocols may use other cut-offs. Additions like (4×) stand for listed records that agree. Some T/C values carry the count of animals alive at the toxicity check (mostly the fifth day); where none is given, no animal had died by that day. Some doses were run more than once; their values stand side by side, smallest first.

System: CD2F1 mice, L1210 leukemia ip, survival T/C
Assay: NCI In Vivo Anticancer Drug Screen. Data for tumor model L1210 Leukemia (intraperitoneal) in CD2F1 (CDF1) mice
Settings: higher T/C = longer survival
In short: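 In this screen, transplantable tumors were grown in mice given either the compound or its vehicle. Results were expressed as the treated measurement relative to the control measurement.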

[1] = T/C endpoint: mean survival time, dose: 100.0 mg/kg/injection, schedule: Q01DX001 (ip), vehicle: saline
[2] = T/C endpoint: mean survival time, dose: 200.0 mg/kg/injection, schedule: Q01DX001 (ip), vehicle: saline
[3] = T/C endpoint: mean survival time, dose: 400.0 mg/kg/injection, schedule: Q01DX001 (ip), vehicle: saline
[4] = T/C endpoint: mean survival time, dose: 200.0 mg/kg/injection, schedule: Q01DX009 (ip), vehicle: saline with Tween-80
[5] = T/C endpoint: mean survival time, dose: 400.0 mg/kg/injection, schedule: Q01DX009 (ip), vehicle: saline with Tween-80
[6] = T/C endpoint: mean survival time, dose: 400.0 mg/kg/injection, schedule: Q04DX003 (ip), vehicle: saline with Tween-80
[7] = T/C endpoint: mean survival time, dose: 100.0 mg/kg/injection, schedule: Q01DX009 (ip), vehicle: saline with Tween-80
[8] = T/C endpoint: mean survival time, dose: 200.0 mg/kg/injection, schedule: Q04DX003 (ip), vehicle: saline with Tween-80

SMILES: Nc1ncc(C=O)c(N)n1
- survivor count (T/C endpoint: mean survival time, dose: 50.0 mg/kg/injection, schedule: Q01DX009 (ip), vehicle: Klucel (hydroxypropylcellulose) (HPC)): 3 of 3
- survivor count (T/C endpoint: mean survival time, dose: 100.0 mg/kg/injection, schedule: Q01DX009 (ip), vehicle: Klucel (hydroxypropylcellulose) (HPC)): 1 of 3
- survivor count (T/C endpoint: mean survival time, dose: 200.0 mg/kg/injection, schedule: Q01DX009 (ip), vehicle: Klucel (hydroxypropylcellulose) (HPC)): 1 of 3

SMILES: Clc1cc(CBr)c2ccccc2n1
- survivor count (T/C endpoint: mean survival time, dose: 200.0 mg/kg/injection, schedule: Q04DX002 (ip), vehicle: saline with Tween-80): 1 of 3
- survivor count (T/C endpoint: mean survival time, dose: 400.0 mg/kg/injection, schedule: Q04DX002 (ip), vehicle: saline with Tween-80): 0 of 3

SMILES: COC(=O)/C(Br)=C/C(C)=O
- survivor count (T/C endpoint: mean survival time, dose: 400.0 mg/kg/injection, schedule: Q01DX001 (ip), vehicle: saline with Tween-80): 0 of 3

SMILES: Cn1c2ccccc2c2cc[n+]3c(c21)CCCC3
- T/C [1]: 127 % of control [4 of 6 alive]
- survivor count [2]: 0 of 6
- survivor count [3]: 0 of 6

SMILES: Cc1ccccc1SCCC(=O)O
- survivor count [4]: 0 of 6
- survivor count [5]: 0 of 6

SMILES: CSc1ncnc2c1ncn2C1OC(CO)C(O)C1O (stereo not given)
- T/C (T/C endpoint: mean survival time, dose: 6.25 mg/kg/injection, schedule: Q01DX009 (ip), vehicle: saline): 125 % of control
- T/C (T/C endpoint: mean survival time, dose: 8.0 mg/kg/injection, schedule: Q01DX009 (ip), vehicle: saline): 128 % of control
- T/C (T/C endpoint: mean survival time, dose: 10.0 mg/kg/injection, schedule: Q01DX005 (ip), vehicle: saline): 125 and 136 % of control
- T/C (T/C endpoint: mean survival time, dose: 16.0 mg/kg/injection, schedule: Q01DX009 (ip), vehicle: saline): 146 % of control
- T/C (T/C endpoint: mean survival time, dose: 20.0 mg/kg/injection, schedule: Q01DX005 (ip), vehicle: saline): 138 % of control
- T/C (T/C endpoint: mean survival time, dose: 20.0 mg/kg/injection, schedule: Q01DX007 (ip), vehicle: saline): 132 % of control
- T/C (T/C endpoint: mean survival time, dose: 20.0 mg/kg/injection, schedule: Q01DX009 (ip), vehicle: saline): 127 % of control
- T/C (T/C endpoint: mean survival time, dose: 20.0 mg/kg/injection, schedule: Q03DX003 (ip), vehicle: saline): 128 % of control
- T/C (T/C endpoint: mean survival time, dose: 25.0 mg/kg/injection, schedule: Q01DX009 (ip), vehicle: saline): 137 % of control
- T/C (T/C endpoint: mean survival time, dose: 50.0 mg/kg/injection, schedule: Q01DX001 (ip), vehicle: saline): 128 % of control
- survivor count (T/C endpoint: mean survival time, dose: 80.0 mg/kg/injection, schedule: Q01DX005 (ip), vehicle: saline): 5 of 8
- T/C [1]: 142 % of control
- T/C [2]: 132 % of control
- T/C (T/C endpoint: median survival time, dose: 18.0 mg/kg/injection, schedule: Q01DX009 (ip), vehicle: saline): 149 % of control
- T/C (T/C endpoint: median survival time, dose: 35.0 mg/kg/injection, schedule: Q01DX009 (ip), vehicle: saline): 134 % of control
- T/C (T/C endpoint: median survival time, dose: 40.0 mg/kg/injection, schedule: Q01DX009 (ip), vehicle: saline, evaluated on day 5): 114 and 146 % of control
- T/C (T/C endpoint: median survival time, dose: 40.0 mg/kg/injection, schedule: Q01DX009 (ip), vehicle: saline, evaluated on day 30): 112 and 122 % of control
- T/C (T/C endpoint: median survival time, dose: 82.0 mg/kg/injection, schedule: Q01DX001 (ip), vehicle: saline with Tween-80): 128 % of control
- T/C (T/C endpoint: median survival time, dose: 82.0 mg/kg/injection, schedule: Q01DX001 (ip), vehicle: saline): 140 % of control
- T/C (T/C endpoint: median survival time, dose: 123.0 mg/kg/injection, schedule: Q01DX001 (ip), vehicle: saline with Tween-80): 141 % of control

SMILES: CCOC(=O)/C=C/SCC(N)C(=O)OCC (stereo not given)
- survivor count [2]: 2 of 6
- survivor count [3]: 2 of 6

SMILES: c1ccc(-c2n[nH]c3ccccc23)cc1
- survivor count (T/C endpoint: median survival time, dose: 400.0 mg/kg/injection, schedule: Q04DX002 (ip), vehicle: saline with Tween-80): 0 of 3

SMILES: c1cncc(CCc2cccnc2)c1
- survivor count (T/C endpoint: mean survival time, dose: 400.0 mg/kg/injection, schedule: Q04DX003 (ip), vehicle: saline): 0 of 3

SMILES: CCC(O)C[As](=O)(O)c1cccc(Cl)c1 (stereo not given)
- survivor count (T/C endpoint: mean survival time, dose: 25.0 mg/kg/injection, schedule: Q01DX001 (ip), vehicle: saline with Tween-80): 0 of 6
- survivor count (T/C endpoint: mean survival time, dose: 50.0 mg/kg/injection, schedule: Q01DX001 (ip), vehicle: saline with Tween-80): 0 of 6
- survivor count (T/C endpoint: mean survival time, dose: 100.0 mg/kg/injection, schedule: Q01DX001 (ip), vehicle: saline with Tween-80): 0 of 6

SMILES: CCC(=O)N(N=O)c1ccccc1
- survivor count [1]: 0 of 6
- survivor count [2]: 0 of 6
- survivor count [3]: 0 of 6

SMILES: Cn1c2ccccc2c2ccc3c(c21)C(=O)C=CC3=O
- survivor count (T/C endpoint: median survival time, dose: 100.0 mg/kg/injection, schedule: Q01DX009 (ip), vehicle: Klucel (hydroxypropylcellulose) (HPC)): 2 of 6
- survivor count (T/C endpoint: median survival time, dose: 200.0 mg/kg/injection, schedule: Q01DX009 (ip), vehicle: Klucel (hydroxypropylcellulose) (HPC)): 0 of 6

SMILES: C1CN(SSN2CCOCC2)CCO1
- survivor count (T/C endpoint: mean survival time, dose: 100.0 mg/kg/injection, schedule: Q04DX003 (ip), vehicle: Klucel (hydroxypropylcellulose) (HPC)): 3 of 3
- survivor count (T/C endpoint: mean survival time, dose: 200.0 mg/kg/injection, schedule: Q04DX003 (ip), vehicle: Klucel (hydroxypropylcellulose) (HPC)): 1 of 3
- survivor count (T/C endpoint: mean survival time, dose: 400.0 mg/kg/injection, schedule: Q04DX003 (ip), vehicle: Klucel (hydroxypropylcellulose) (HPC)): 0 of 3
- survivor count [6]: 0 of 3

SMILES: CCC1OCC(C(Cl)CCl)O1 (stereo not given)
- survivor count (T/C endpoint: mean survival time, dose: 400.0 mg/kg/injection, schedule: Q01DX009 (ip), vehicle: Klucel (hydroxypropylcellulose) (HPC)): 0 of 6

SMILES: C=CC(=O)NC(C)(C)CC(C)(C)C
- survivor count [4]: 6 of 6
- survivor count [5]: 0 of 6

SMILES: Nc1nc2nc(CBr)c(CBr)nc2c(=O)[nH]1
- survivor count [7]: 3 of 6
- survivor count [5]: 3 of 6

SMILES: Cc1cc2c(C(C)C)c(O)c(O)c(C=O)c2c(O)c1-c1c(C)cc2c(C(C)C)c(O)c(O)c(C=O)c2c1O
- survivor count (T/C endpoint: median survival time, dose: 25.0 mg/kg/injection, schedule: Q01DX009 (ip), vehicle: saline with Tween-80): 3 of 6
- survivor count (T/C endpoint: median survival time, dose: 50.0 mg/kg/injection, schedule: Q01DX009 (ip), vehicle: saline with Tween-80): 0 of 6
- survivor count (T/C endpoint: median survival time, dose: 100.0 mg/kg/injection, schedule: Q01DX009 (ip), vehicle: saline with Tween-80): 0 of 6

SMILES: Cc1c(N)cc([N+](=O)[O-])c(C)c1[N+](=O)[O-]
- survivor count [6]: 3 of 6

SMILES: O=[N+]([O-])c1c(Br)sc(Br)c1[N+](=O)[O-]
- survivor count (T/C endpoint: mean survival time, dose: 100.0 mg/kg/injection, schedule: Q04DX003 (ip), vehicle: saline with Tween-80): 5 of 6
- survivor count [8]: 1 of 6
- survivor count [6]: 0 of 6

SMILES: COc1ccc(C(=O)N/N=C(\C)[C@]2(O)Cc3c(O)c4c(c(O)c3[C@@H](OC3CC(N)C(O)C(C)O3)C2)C(=O)c2c(OC)cccc2C4=O)cc1 (stereo not given in full)
- T/C (T/C endpoint: mean survival time, dose: 8.0 mg/kg/injection, schedule: Q01DX009 (ip), vehicle: water): 136 % of control
- survivor count (T/C endpoint: mean survival time, dose: 16.0 mg/kg/injection, schedule: Q01DX009 (ip), vehicle: water): 6 of 6

SMILES: Nc1cc(Cl)c(N)c(N)n1
- survivor count [5]: 3 of 6

SMILES: CC(=O)Nc1ccc(O)c(O)c1
- T/C (T/C endpoint: mean survival time, dose: 12.5 mg/kg/injection, schedule: Q01DX009 (ip), vehicle: saline with Tween-80): 92, 98, 113, 135 % of control
- T/C (T/C endpoint: mean survival time, dose: 25.0 mg/kg/injection, schedule: Q01DX009 (ip), vehicle: saline with Tween-80): 95, 102 [5 of 6 alive], 106, 108 % of control
- T/C (T/C endpoint: mean survival time, dose: 50.0 mg/kg/injection, schedule: Q01DX009 (ip), vehicle: saline with Tween-80): 99 [5 of 6 alive], 107, 107 [5 of 6 alive], 111 % of control
- T/C [7]: 100, 108, 115, 118 % of control
- T/C [4]: 113, 117, 118, 120 % of control
- T/C [5]: 121, 126 [5 of 6 alive], 132, 134 % of control

SMILES: COC(=O)C[C@](O)(CCC(C)(C)O)C(=O)O[C@@H]1C(OC)=C[C@]23CCCN2CCc2cc4c(cc2[C@H]13)OCO4
- T/C (T/C endpoint: median survival time, dose: 0.25 mg/kg/injection, schedule: Q01DX009 (ip), vehicle: saline): 128 % of control
- T/C (T/C endpoint: median survival time, dose: 1.0 mg/kg/injection, schedule: Q01DX009 (ip), vehicle: saline): 128 and 132 % of control
- T/C (T/C endpoint: median survival time, dose: 2.0 mg/kg/injection, schedule: Q01DX009 (ip), vehicle: saline): 133 % of control (2×)
- T/C (T/C endpoint: median survival time, dose: 4.0 mg/kg/injection, schedule: Q01DX009 (ip), vehicle: saline): 130 % of control

SMILES: O=C1CC2OCCC3=CN4CCC56c7ccccc7N1C5C2C3CC46 (stereo not given)
- survivor count (T/C endpoint: mean survival time, dose: 5.0 mg/kg/injection, schedule: Q01DX001 (ip), vehicle: other): 0 of 6

SMILES: CC(NC1=NCCO1)c1cccc2ccccc12 (stereo not given)
- survivor count [8]: 1 of 6
- survivor count [6]: 0 of 6
